For some of these results: At least one result comes from cells or an extract, where the contact may be indirect. For some of these results: Negatives hold for the conditions tested. For some of these results: Construct, isoform or probe ends are uncertain for at least one entry.
What was measured:
[1] = molecular target: PyRo1 / hnRNP-K, native Jurkat nuclear factor (Homo sapiens) (UniProt P61978); assay: competition with a labelled probe; conditions: unrelated competitor; outcome not explicitly described in text; protein in an extract; single-stranded DNA
[2] = molecular target: GST (UniProt P08515); assay: EMSA; conditions: GST-alone control; outcome implied; purified recombinant protein; protein details: GST alone from parent vector; label: 32P 5'; single-stranded DNA
[3] = molecular target: PyRo1 / hnRNP-K, native Jurkat nuclear factor (Homo sapiens) (UniProt P61978); assay: pull-down; conditions: 3'-biotinylated n1 on streptavidin particles; captured protein identified as hnRNP-K by MALDI-TOF-MS; protein in an extract; label: 32P 5'; single-stranded DNA
[4] = molecular target: PyRo1 / hnRNP-K, native Jurkat nuclear factor (Homo sapiens) (UniProt P61978); assay: EMSA; conditions: all dT replaced by 5-bromo-2'-deoxyuridine (U = bromouracil); 3' biotin; protein in an extract; label: 32P, 3' biotin; single-stranded DNA; variant of CD43 PyRo SS

GAGTTAGCTCACTCATTAGG [NS-SS]: no binding [1].

GGGCCCACTTCCTTTCCCCTTG [CD43 PyRo SS]: no binding [2]; binds [3].

GGGCCCACUUCCUUUCCCCUUG [CD43 PyRo SSUB]: binds [4].
